Assay results reported in patent US5122448A, “Assay of anti-Epstein-Barr virus nuclear antigen antibodies with synthetic polypeptides” (Scripps Clinic and Research Foundation, priority 1990, dated 1992).
At least one peptide structure holds a part that was inferred or is arguable (an end, a ring closure or a residue). Some entries repeat one wording, which the source may state once for all of them. Residues, ends and D or L forms follow the SMILES beside them.

Experiments:
[1] = tested on: human anti-EBNA antibodies; experiment: ELISA: inhibition of serum antibody binding to solid phase P62 by competing polypeptide in solution; conditions: for Inhibition of Antibody Binding to Peptide P62, Percent of Uninhibited Activity: 100 micrograms per milliliter competing peptide; for Sera inhibited by competing polypeptide in binding to solid phase P62: sera of Table 4
Experimental: Anti-peptide antibody binding and inhibition studies were carried out by an enzyme-linked immunosorbent assay (ELISA) as described below.
Contact between the wells and antigen-containing solution was maintained for a predetermined time, typically 15 minutes, and at 20 degrees C., to form an antigen-coated solid phase. The solid and liquid phases were separated and the wells were washed three times with BBS.
Rabbit and human sera (body sample aliquots) were assayed for anti-polypeptide activity by adding 100 microliters of a serum diluted 1:20 in BBS per well to form a solid/liquid phase composition. Contact between the diluted sera and the antigen-coated solid phase was maintained for a predetermined time such as 1 hour, and at 20 degrees C., for an immunoreactant to form. The solid and liquid phases were separated, and the solid phase; i.e., antigen-coated, immunoreactant-containing wells, was then washed three times with BBS.

anti-EBNA antibodies = experiment: ELISA with polypeptide as solid phase antigen, anti-polypeptide activity of sera (OD405); type: binding, human; conditions: all antisera tested

Row | SMILES | Inhibition of Antibody Binding to Peptide P62, Percent of Uninhibited Activity ([1]; serum CV) | Inhibition of Antibody Binding to Peptide P62, Percent of Uninhibited Activity ([1]; serum JC) | Inhibition of Antibody Binding to Peptide P62, Percent of Uninhibited Activity ([1]; serum S60) | Inhibition of Antibody Binding to Peptide P62, Percent of Uninhibited Activity ([1]; serum S62) | Inhibition of Antibody Binding to Peptide P62, Percent of Uninhibited Activity ([1]; serum TJ) | Inhibition of Antibody Binding to Peptide P62, Percent of Uninhibited Activity ([1]; serum VM) | Sera inhibited by competing polypeptide in binding to solid phase P62 [1] | Immunoreaction of antisera with polypeptide bound to microtiter plates (anti-EBNA antibodies) | Concentration required relative to P62 or D1 for equivalent inhibition [1]
1 | C[C@H](NC(=O)CNC(=O)CNC(=O)CN)C(=O)NCC(=O)O [Polypeptide A5, G G G A G] (H-GGGAG-OH) | 92% | 94% | 106% | 86% | 96% | 93% | None were inhibited | No antiserum tested immunoreacted | –
2 | C[C@H](N)C(=O)NCC(=O)NCC(=O)NCC(=O)N[C@@H](C)C(=O)NCC(=O)O [Polypeptide A6, A G G G A G] | 93% | 92% | 109% | 96% | 80% | 81% | None were inhibited | No antiserum tested immunoreacted | –
3 | C[C@H](NC(=O)CN)C(=O)NCC(=O)NCC(=O)NCC(=O)N[C@@H](C)C(=O)NCC(=O)O [Polypeptide A7, G A G G G A G] (H-GAGGGAG-OH) | 93% | 60% | 93% | 89% | 91% | 51% | one | No antiserum tested immunoreacted | –
4 | C[C@H](N)C(=O)NCC(=O)N[C@@H](C)C(=O)NCC(=O)NCC(=O)NCC(=O)N[C@@H](C)C(=O)NCC(=O)O [Polypeptide A8, A G A G G G A G] (H-AGAGGGAG-OH) | 72% | 88% | 84% | 95% | 74% | 17% | three sera | No antiserum tested immunoreacted | –
5 | C[C@H](NC(=O)CN)C(=O)NCC(=O)N[C@@H](C)C(=O)NCC(=O)NCC(=O)NCC(=O)N[C@@H](C)C(=O)NCC(=O)O [Polypeptide A9, G A G A G G G A G] (H-GAGAGGGAG-OH) | 20% | 74% | 53% | 78% | 31% | 9% | Almost all sera tested were inhibited | No antiserum tested immunoreacted | more than 100 fold
